{"source": "paper PMC11284787", "about": "“Ligand-Directed Labeling of the Adenosine A1 Receptor in Living Cells” (Journal of Medicinal Chemistry, 2024)", "system": "T1, SNAP-hA1AR", "T1 construct": "expressed in transfected cells; host or cells: HEK293T, transient transfection (FuGENE HD)", "test": "Fluorescence correlation spectroscopy on SNAP-hA1AR HEK293T cell membranes", "type": "cell-based, human", "details": "100 nM 90 min"}
{"smiles": "CCCCn1c(=O)c2[nH]c(C34CCC(C(=O)NCCNC(=O)CCNC(=O)c5ccc(OC(=O)CCCCC[N+]6=C(/C=C/C=C/C=C7/N(C)c8ccc(S(=O)(=O)O)cc8C7(C)C)C(C)(C)c7cc(S(=O)(=O)[O-])ccc76)c(F)c5)(CC3)CC4)nc2n(CCCC)c1=O", "note": "[Compound 11, 1-(6-(4-((3-((2-(4-(1,3-Dibutyl-2,6-dioxo-2,3,6,7-tetrahydro-1H-purin-8-yl)bicyclo[2.2.2]octane-1-carboxamido)ethyl)amino)-3-oxopropyl)carbamoyl)-2-fluorophenoxy)-6-oxohexyl)-3,3-dimethyl-2-((1E,3E)-5-((E)-1,3,3-trimethyl-5-sulfoindolin-2-ylidene)penta-1,3-dien-1-yl)-3H-indol-1-ium-5-sulfonate]", "values": [{"measurement": "expression level detected in labeled cells, range", "result": "4–45 particles per μm^2"}, {"measurement": "average expression level detected in labeled cells", "setting": "mean ± SEM", "result": "17.9 ± 1.62", "unit": "particles per μm^2"}]}
